Results are given in words; binding and its absence hold for the method and conditions named. In cells and extracts the contact can be indirect. Some results given as binding are weak or reduced against the parent protein; the word gives no strength.
Target: Cdc42 G15A agarose beads (ab211185, Abcam) (UniProt P60953)
Assay: pull-down with Cdc42 G15A agarose beads from lysates of GBM12 and GBM6, Western blot with DOCK7 antibody (FIG. 9P)

Protein sequences, listed by entry. Tags and fused reporters are not part of them. Lines headed by an entry give the natural chain unless they say otherwise; changes in a name come on top.
UniProt P60953: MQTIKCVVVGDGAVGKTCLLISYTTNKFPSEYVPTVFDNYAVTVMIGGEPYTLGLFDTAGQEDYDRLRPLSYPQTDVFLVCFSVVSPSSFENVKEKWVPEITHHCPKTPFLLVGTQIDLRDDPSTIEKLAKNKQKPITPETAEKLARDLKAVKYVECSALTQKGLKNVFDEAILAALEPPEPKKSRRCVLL
UniProt Q96N67: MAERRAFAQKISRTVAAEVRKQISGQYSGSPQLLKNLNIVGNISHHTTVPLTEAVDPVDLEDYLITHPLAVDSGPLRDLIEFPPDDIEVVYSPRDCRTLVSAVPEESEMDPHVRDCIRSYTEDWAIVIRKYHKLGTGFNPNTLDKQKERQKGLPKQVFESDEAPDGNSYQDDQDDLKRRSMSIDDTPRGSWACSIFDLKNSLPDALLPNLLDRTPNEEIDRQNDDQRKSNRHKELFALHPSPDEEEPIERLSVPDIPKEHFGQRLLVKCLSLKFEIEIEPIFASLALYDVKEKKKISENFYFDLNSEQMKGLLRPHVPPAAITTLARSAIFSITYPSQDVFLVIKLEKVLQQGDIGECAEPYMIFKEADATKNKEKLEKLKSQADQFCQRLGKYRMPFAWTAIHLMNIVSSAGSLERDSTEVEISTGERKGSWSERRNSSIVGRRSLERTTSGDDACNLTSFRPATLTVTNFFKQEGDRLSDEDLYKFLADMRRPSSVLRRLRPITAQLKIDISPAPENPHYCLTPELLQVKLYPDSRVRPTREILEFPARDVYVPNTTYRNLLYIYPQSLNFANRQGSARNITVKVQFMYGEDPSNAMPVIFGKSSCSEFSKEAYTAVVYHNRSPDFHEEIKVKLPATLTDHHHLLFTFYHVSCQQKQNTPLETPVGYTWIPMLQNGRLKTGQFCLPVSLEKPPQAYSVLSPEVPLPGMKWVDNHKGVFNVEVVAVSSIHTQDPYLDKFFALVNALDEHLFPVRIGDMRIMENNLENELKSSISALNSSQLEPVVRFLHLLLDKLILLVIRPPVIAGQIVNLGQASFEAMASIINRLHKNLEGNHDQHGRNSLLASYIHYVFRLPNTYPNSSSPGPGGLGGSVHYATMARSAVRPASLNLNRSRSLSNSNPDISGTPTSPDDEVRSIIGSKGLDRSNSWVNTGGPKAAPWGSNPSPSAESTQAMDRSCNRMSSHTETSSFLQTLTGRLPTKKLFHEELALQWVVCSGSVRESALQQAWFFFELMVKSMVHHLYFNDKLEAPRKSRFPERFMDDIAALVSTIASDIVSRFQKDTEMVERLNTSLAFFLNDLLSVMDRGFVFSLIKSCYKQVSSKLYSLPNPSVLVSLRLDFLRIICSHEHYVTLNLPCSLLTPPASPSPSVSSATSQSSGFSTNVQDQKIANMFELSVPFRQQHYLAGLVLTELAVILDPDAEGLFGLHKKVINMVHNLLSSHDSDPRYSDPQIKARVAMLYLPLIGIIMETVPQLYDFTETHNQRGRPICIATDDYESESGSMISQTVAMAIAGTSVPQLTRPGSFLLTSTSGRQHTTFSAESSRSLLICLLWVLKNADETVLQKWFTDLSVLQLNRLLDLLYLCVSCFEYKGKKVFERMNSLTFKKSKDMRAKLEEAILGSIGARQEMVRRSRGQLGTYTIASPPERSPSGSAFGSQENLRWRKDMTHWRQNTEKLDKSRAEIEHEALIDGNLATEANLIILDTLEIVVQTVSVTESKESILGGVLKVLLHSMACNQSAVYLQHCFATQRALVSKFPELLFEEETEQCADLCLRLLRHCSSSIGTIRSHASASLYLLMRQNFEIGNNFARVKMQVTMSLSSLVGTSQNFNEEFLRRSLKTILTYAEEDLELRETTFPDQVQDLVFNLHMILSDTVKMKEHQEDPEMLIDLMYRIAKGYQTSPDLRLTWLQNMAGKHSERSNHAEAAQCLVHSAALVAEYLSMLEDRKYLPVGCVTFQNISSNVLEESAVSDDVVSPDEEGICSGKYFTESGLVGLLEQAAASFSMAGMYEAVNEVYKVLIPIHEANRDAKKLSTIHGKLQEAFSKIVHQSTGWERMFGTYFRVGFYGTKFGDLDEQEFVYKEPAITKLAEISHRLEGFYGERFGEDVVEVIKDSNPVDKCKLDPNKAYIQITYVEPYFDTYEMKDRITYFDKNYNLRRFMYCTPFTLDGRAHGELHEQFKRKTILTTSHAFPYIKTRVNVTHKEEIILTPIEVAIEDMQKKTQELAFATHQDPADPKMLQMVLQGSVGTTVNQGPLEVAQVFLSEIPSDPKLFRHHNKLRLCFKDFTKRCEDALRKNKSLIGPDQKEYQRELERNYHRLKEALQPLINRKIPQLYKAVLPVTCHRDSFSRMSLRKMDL

- binding: binds
Substance: DOCK7 (dedicator of cytokinesis 7) (from UniProt Q96N67 1-2140) (enzyme)

Source: patent US20230075368A1, “IDENTIFICATION OF AN EGFR-BIN3 PATHWAY THAT ACTIVELY SUPPRESSES INVASION AND REDUCES TUMOR SIZE IN GLIOBLASTOMA” (The United States Govemment as represented by the …, priority 2020, published 2023)
